Experimental data as given in patent US20140296281A1, “METHODS FOR SCREENING A BRCA1 LOSS-OF-FUNCTION IN A SUBJECT SUFFERING FROM A CANCER” (INSERM (INSTITUT NATIONAL DE LA SANTE ET DE LA RECHERCHE …, priority 2011, published 2014).
For at least one compound, name, drawing or mass did not settle the structure.

Columns and labels:
Type in all cases: cell-based, human
[1] = tested on: MCF-7 cells; test: Cell proliferation (flow cytometry) in MCF-7; settings: MCF-7, DEX 100 nM, 24 h
[2] = tested on: GRE-Luc; test: GRE-Luc reporter assay in MCF-7 cells; settings: MCF-7, DEX
[3] = tested on: GRE-Luc; test: GRE-Luc reporter assay in MDA-MB-231 cells; settings: MDA-MB-231, DEX
[4] = tested on: MCF-7 cells; test: Cell apoptosis (flow cytometry, subG1) in MCF-7; settings: MCF-7, DEX, compared to controls
[5] = tested on: glucocorticoid responsive genes (GOS8/RGS2, MKP-1, IEX-1, tPa); test: qRT-PCR of glucocorticoid responsive genes in HBE cells; settings: DEX, siControl
[6] = tested on: MDA-MB-231 cells; test: Cell proliferation (flow cytometry) in MDA-MB-231; settings: MDA-MB-231, DEX 100 nM, 24 h
[7] = tested on: MDA-MB-231 cells; test: Cell apoptosis (flow cytometry, subG1) in MDA-MB-231; settings: MDA-MB-231, DEX, compared to controls
[8] = tested on: BRCA1; test: BRCA1 expression under DEX in MCF-7 cells; settings: MCF-7 cells under DEX treatment

With `C[C@@H]1C[C@H]2[C@@H]3CCC4=CC(=O)C=C[C@]4(C)[C@@]3(F)[C@@H](O)C[C@]2(C)[C@@]1(O)C(=O)CO` [DEX, Dexamethasone] the cell proliferation [1] was “significantly decreased”, the GRE-Luc transactivation [2] was “strong GRE-Luc transactivation” and the GRE-Luc transactivation [3] was “strong GRE-Luc transactivation”. The cell apoptosis [4] was “significant decreased”, the GOS8/RGS2 expression [5] was “upregulation” and the IEX-1 expression [5] was “down-regulation”. The MKP-1 expression [5] was “upregulation”, the tPa expression [5] was “down-regulation” and the cell proliferation [6] was “significantly decreased”. The cell apoptosis [7] was “significant decreased” and the “down regulation of BRCA1” value [8] was “not detected”.
